Reference: doi:10.1101/2025.05.06.652320

Amino acid sequences for entries named in this document (tags omitted). Residues count along the entry.
UniProt Q13526: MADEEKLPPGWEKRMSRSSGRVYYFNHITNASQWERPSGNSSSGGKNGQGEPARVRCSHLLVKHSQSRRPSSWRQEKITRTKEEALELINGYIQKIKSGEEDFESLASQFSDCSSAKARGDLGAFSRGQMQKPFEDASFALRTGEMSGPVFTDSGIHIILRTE
UniProt P13612, residues 34-1032: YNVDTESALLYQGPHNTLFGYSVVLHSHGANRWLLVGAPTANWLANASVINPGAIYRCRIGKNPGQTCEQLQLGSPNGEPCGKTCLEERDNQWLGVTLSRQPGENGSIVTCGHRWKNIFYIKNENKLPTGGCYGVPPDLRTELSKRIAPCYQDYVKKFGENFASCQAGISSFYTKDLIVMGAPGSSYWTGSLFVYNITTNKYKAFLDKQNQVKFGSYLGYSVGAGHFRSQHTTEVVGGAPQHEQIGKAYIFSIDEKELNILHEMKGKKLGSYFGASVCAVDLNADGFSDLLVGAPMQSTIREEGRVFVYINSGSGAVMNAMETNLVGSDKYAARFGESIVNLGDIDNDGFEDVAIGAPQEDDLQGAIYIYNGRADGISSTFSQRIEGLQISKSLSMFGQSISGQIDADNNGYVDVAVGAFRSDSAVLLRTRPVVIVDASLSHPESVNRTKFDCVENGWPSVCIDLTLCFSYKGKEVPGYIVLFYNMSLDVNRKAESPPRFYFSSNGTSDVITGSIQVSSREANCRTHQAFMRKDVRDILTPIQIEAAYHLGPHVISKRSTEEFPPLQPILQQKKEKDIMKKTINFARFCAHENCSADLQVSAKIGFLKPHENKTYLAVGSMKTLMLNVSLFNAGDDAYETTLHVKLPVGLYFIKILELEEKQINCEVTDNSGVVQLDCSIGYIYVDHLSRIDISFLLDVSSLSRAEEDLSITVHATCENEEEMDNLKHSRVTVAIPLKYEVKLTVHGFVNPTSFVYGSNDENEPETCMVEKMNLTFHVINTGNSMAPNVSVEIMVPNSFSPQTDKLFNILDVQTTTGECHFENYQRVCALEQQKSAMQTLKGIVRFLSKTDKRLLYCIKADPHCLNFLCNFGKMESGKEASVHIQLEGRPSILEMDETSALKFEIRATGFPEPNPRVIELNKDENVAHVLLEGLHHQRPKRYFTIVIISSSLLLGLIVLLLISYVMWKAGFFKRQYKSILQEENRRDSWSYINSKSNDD

What was measured:
[1] = biological target: endogenous PIN1 with a Twin-Strep-tag inserted at the native PIN1 locus (human (endogenous in HEK293T)) (UniProt Q13526); test: proximity labelling
[2] = biological target: endogenous PIN1 with a Twin-Strep-tag inserted at the native PIN1 locus (human (endogenous in HEK293T)) (UniProt Q13526); test: proximity labelling; remark: listed apart in the source

- binding [1]: binds
Molecule: ITGA4 (from UniProt P13612 34-1032)

- binding [2]: binds
B1: RFC1 (protein, UniProt P35251 1-1148)
chain: MDIRKFFGVIPSGKKLVSETVKKNEKTKSDEETLKAKKGIKEIKVNSSRKEDDFKQKQPSKKKRIIYDSDSESEETLQVKNAKKPPEKLPVSSKPGKISRQDPVTYISETDEEDDFMCKKAASKSKENGRSTNSHLGTSNMKKNEENTKTKNKPLSPIKLTPTSVLDYFGTGSVQRSNKKMVASKRKELSQNTDESGLNDEAIAKQLQLDEDAELERQLHEDEEFARTLAMLDEEPKTKKARKDTEAGETFSSVQANLSKAEKHKYPHKVKTAQVSDERKSYSPRKQSKYESSKESQQHSKSSADKIGEVSSPKASSKLAIMKRKEESSYKEIEPVASKRKENAIKLKGETKTPKKTKSSPAKKESVSPEDSEKKRTNYQAYRSYLNREGPKALGSKEIPKGAENCLEGLIFVITGVLESIERDEAKSLIERYGGKVTGNVSKKTNYLVMGRDSGQSKSDKAAALGTKIIDEDGLLNLIRTMPGKKSKYEIAVETEMKKESKLERTPQKNVQGKRKISPSKKESESKKSRPTSKRDSLAKTIKKETDVFWKSLDFKEQVAEETSGDSKARNLADDSSENKVENLLWVDKYKPTSLKTIIGQQGDQSCANKLLRWLRNWQKSSSEDKKHAAKFGKFSGKDDGSSFKAALLSGPPGVGKTTTASLVCQELGYSYVELNASDTRSKSSLKAIVAESLNNTSIKGFYSNGAASSVSTKHALIMDEVDGMAGNEDRGGIQELIGLIKHTKIPIICMCNDRNHPKIRSLVHYCFDLRFQRPRVEQIKGAMMSIAFKEGLKIPPPAMNEIILGANQDIRQVLHNLSMWCARSKALTYDQAKADSHRAKKDIKMGPFDVARKVFAAGEETAHMSLVDKSDLFFHDYSIAPLFVQENYIHVKPVAAGGDMKKHLMLLSRAADSICDGDLVDSQIRSKQNWSLLPAQAIYASVLPGELMRGYMTQFPTFPSWLGKHSSTGKHDRIVQDLALHMSLRTYSSKRTVNMDYLSLLRDALVQPLTSQGVDGVQDVVALMDTYYLMKEDFENIMEISSWGGKPSPFSKLDPKVKAAFTRAYNKEAHLTPYSLQAIKASRHSTSPSLDSEYNEELNEDDSQSDEKDQDAIETDAMIKKKTKSSKPSKPEKDKEPRKGKGKSSKK

- binding [2]: binds
B2: MNAT (protein, UniProt P51948 1-309)
chain: MDDQGCPRCKTTKYRNPSLKLMVNVCGHTLCESCVDLLFVRGAGNCPECGTPLRKSNFRVQLFEDPTVDKEVEIRKKVLKIYNKREEDFPSLREYNDFLEEVEEIVFNLTNNVDLDNTKKKMEIYQKENKDVIQKNKLKLTREQEELEEALEVERQENEQRRLFIQKEEQLQQILKRKNKQAFLDELESSDLPVALLLAQHKDRSTQLEMQLEKPKPVKPVTFSTGIKMGQHISLAPIHKLEEALYEYQPLQIETYGPHVPELEMLGRLGYLNHVRAASPQDLAGGYTSSLACHRALQDAFSGLFWQPS

Read-outs that look alike come from different tables or passages of the source. No constants are given. Whether binding was seen depends on the method and setting. In cells and extracts the contact can be indirect. These calls come from enrichment with a bait or labelling near it, and not all partners need be listed. Each block holds one molecule with its values, some of them ahead of it.
